The target in this data set is T1, r.Zcchc11 (TUT4) (Homo sapiens) (UniProt Q5TAX3).
T1 sequence (looked up): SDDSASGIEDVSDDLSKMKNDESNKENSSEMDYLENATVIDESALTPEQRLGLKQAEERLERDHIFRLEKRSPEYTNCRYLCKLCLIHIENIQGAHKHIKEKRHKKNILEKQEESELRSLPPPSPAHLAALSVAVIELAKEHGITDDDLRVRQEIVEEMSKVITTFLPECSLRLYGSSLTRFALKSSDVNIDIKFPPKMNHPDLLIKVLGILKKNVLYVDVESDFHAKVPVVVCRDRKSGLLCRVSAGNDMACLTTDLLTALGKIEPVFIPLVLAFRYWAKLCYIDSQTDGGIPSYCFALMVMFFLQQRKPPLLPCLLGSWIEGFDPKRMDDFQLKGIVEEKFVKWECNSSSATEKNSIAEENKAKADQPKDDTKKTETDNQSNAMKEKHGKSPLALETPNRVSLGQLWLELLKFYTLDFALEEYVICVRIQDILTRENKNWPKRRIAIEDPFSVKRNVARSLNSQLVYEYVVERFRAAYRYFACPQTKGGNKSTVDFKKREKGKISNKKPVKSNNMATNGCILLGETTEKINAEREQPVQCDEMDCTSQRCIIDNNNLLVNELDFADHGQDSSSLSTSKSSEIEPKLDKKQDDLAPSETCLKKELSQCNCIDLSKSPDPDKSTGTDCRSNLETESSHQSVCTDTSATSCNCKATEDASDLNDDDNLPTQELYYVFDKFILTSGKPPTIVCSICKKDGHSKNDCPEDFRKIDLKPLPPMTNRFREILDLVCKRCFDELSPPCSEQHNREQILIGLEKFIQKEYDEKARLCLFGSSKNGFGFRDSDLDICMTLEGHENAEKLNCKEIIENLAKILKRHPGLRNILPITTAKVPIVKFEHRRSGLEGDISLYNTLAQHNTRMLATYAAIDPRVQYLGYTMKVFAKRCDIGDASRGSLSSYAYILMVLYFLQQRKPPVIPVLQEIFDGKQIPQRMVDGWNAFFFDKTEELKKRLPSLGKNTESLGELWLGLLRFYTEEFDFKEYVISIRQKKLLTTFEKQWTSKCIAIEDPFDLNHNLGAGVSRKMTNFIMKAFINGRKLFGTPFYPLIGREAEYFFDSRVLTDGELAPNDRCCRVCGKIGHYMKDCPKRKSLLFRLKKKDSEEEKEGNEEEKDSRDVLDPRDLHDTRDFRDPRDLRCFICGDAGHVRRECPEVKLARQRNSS
The data set is described as follows: EMSA. The settings on record: 2 mM Mg2+, RNA 2.5 nM; EMSA: 500 mM NaCl, 20 mM HEPES pH 7.5, 2 mM MgCl2, 5% glycerol, 1 mM TCEP; 10 ul, 3-50 ng protein, 2.5 nM RNA; native 12% PAGE in 0.5x TBE; temperature not stated; recombinant protein; residues 225-1384; protein details: N-terminal His6-Trx, removed with TEV; label: 5'-32P. In general terms: A gel shift assay detects complexes by their altered migration in electrophoresis.

Weaker means in comparison with the reference protein, sequence or condition of that experiment. Protein sequences can lack the tags named with them.

Take “CUGUACAGGCCACUGCCUUGC [let-7g passenger]”: the binding result is reported as “binds more weakly”.

Source of the values: publication PMC4191393, “Selective microRNA uridylation by Zcchc6 (TUT7) and Zcchc11 (TUT4)”.
